Experimental data reported in PubChem BioAssay AID1259415 (National Center for Advancing Translational Sciences (NCATS), 2018).
The campaign covered roughly 410,000 compounds. About 18,000 (4.4%) were called active. The inconclusive results got no clear call from the source; some entries with a clear call stand among them for comparison. Rule as the data show it: active = activity change below about -60%; inconclusive = no clear call, values can overlap the other calls; inactive = above about -39%.
% is scaled to controls: 0 for no effect and ±100 for the full control effect.

Assay: qHTS Assay for inhibitors of the human cytomegalovirus (HCMV)
Conditions: HFF cells, HCMV-luciferase reporter, 72 h; at 57.5 µM; stronger effect = lower value
Outline: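 Inhibition of viral replication was scored as loss of reporter luminescence in HFFs infected with HCMV-luciferase (MOI 1 PFU/cell) for 72 h; compounds tested at 2 doses, normalized to buffer and Salinomycin controls.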
For COc1ccccc1-c1nc(CNC(=O)Nc2ccccc2)c(C)o1, the activity change, negative = inhibition was inactive: -11.3%.
In the case of Cc1cccc(OCCN2C(=O)C(=O)c3cc(C)ccc32)c1, the activity change, negative = inhibition is reported as active: -88.9%.
For Cc1ccc2nc(C3CCCCC3)c(Cc3ccccc3C(F)(F)F)n2c1, the activity change, negative = inhibition was active: -69.8%.
With CCOc1ccc(Cc2nn[nH]n2)cc1 the activity change, negative = inhibition was inconclusive: -57%.
For CC(C)OCCCNC(=O)C1CC(=O)N(CCc2ccccc2)C1 (stereo not drawn), the activity change, negative = inhibition was inactive: -16.7%.
In the case of CCOC(=O)c1c(NC(C)=O)c2c3c(sc2n1Cc1nc(-c2cccc(C)c2)oc1C)CCCC3, the activity change, negative = inhibition is reported as inactive: -19.7%.
In the case of CC1C(=O)N2CCCc3cc(S(=O)(=O)N4CCN(c5ccccc5F)CC4)cc1c32 (stereo not drawn), the activity change, negative = inhibition is reported as inconclusive: -42.3%.
In the case of CCOC(=O)c1c(CN2CCOCC2)n(-c2ccccc2)c2cc(Br)c(O)cc12, the activity change, negative = inhibition is reported as inconclusive: -45.3%.
With N#Cc1c(NC(=O)CS(=O)(=O)c2ccc(Cl)cc2)sc2c1CCCCC2 the activity change, negative = inhibition was inconclusive: 0%.
For O=C(NC1CCCCC1)c1ccc2ccccc2c1O, the activity change, negative = inhibition was inconclusive: -48.6%.
With Nc1cc(-c2ccc(Br)cc2)nn1S(=O)(=O)c1ccccc1 the activity change, negative = inhibition was inconclusive: -43.7%.
For O=C(CCn1c(=O)oc2ccccc21)NCc1ccco1, the activity change, negative = inhibition was inconclusive: -49%.
With Cc1nn(C)c(C)c1S(=O)(=O)N1CCC(C(=O)NC2CCCCCC2)CC1 the activity change, negative = inhibition was inconclusive: -42.8%.
With O=C(COc1ccc(-n2ccnc2)cc1)Nc1cccc(Cl)c1 the activity change, negative = inhibition was active: -64.4%.
With Cc1ccc(C(=O)Nc2ccc3oc(-c4ccncc4)nc3c2)c(Cl)c1 the activity change, negative = inhibition was inconclusive: -40.9%.
For CCN1CSC(=S)N(Cc2ccccc2)C1, the activity change, negative = inhibition was inconclusive: -50.5%.
For Cc1cccc(-n2c(=O)c3c(c4cc(C)ccc4n3C)n(CC(=O)Nc3ccc(C)cc3C)c2=O)c1, the activity change, negative = inhibition was inactive: 7.38%.
For CCC(CC)C(C(=O)NC1CCCC1)N1CCN(c2cc(C)nc3ccccc23)CC1 (stereo not drawn), the activity change, negative = inhibition was inconclusive: -43.9%.
For CCOC(=O)c1ccc(NS(=O)(=O)c2cc3c4c(c2)CCN4C(=O)CC3)cc1, the activity change, negative = inhibition was active: -81%.
For COC(=O)c1ccc(-n2c(C)cc(C(=O)CCl)c2C)cc1, the activity change, negative = inhibition was active: -84.5%.
For CCOc1ccc(Cc2noc3c2C(=O)CC(C)(C)C3)cc1OCC, the activity change, negative = inhibition was inconclusive: -43.5%.
For Cn1c2ccccc2c(=O)c2c(=O)n(C3CCCCC3)c(-c3cccs3)nc21, the activity change, negative = inhibition was inconclusive: -54.3%.
For O=C(COC(=O)/C=C/c1ccccc1[N+](=O)[O-])NC1CCS(=O)(=O)C1 (stereo not drawn), the activity change, negative = inhibition was inconclusive: -47.7%.
For CCC(=O)Nc1ccc(NC(=S)Nc2ccccc2)cc1, the activity change, negative = inhibition was inconclusive: -45.4%.
For Cc1ccc(Cn2c(SCc3ccc(C(=O)NC4CCCC4)cc3)nc3ccncc32)cc1, the activity change, negative = inhibition was active: -74.1%.
In the case of O=C(c1cc2ccccn2n1)N1CCN(c2cccc(C(F)(F)F)c2)CC1, the activity change, negative = inhibition is reported as active: -67.7%.
For O=c1oc2ccccc2cc1-c1cn2cc(Cc3ccccc3F)sc2n1, the activity change, negative = inhibition was inactive: 97.1%.
In the case of Oc1ccc(/C=N/N2CCCCC2)c(O)c1, the activity change, negative = inhibition is reported as inactive: -15.6%.
For O=c1c2ccccc2[nH]c(=S)n1CCN1CCCCC1, the activity change, negative = inhibition was inactive: 32.5%.
In the case of Cc1ccc2nc(-c3cccnc3)c(NC3CCCC3)n2c1, the activity change, negative = inhibition is reported as inconclusive: -41.2%.
With COc1ccccc1NC(=S)c1ccccc1 the activity change, negative = inhibition was inconclusive: -52.7%.
For Cc1cc(C=C2C(=O)NC(=S)NC2=O)c(C)n1C1CCCC1, the activity change, negative = inhibition was inconclusive: -41.3%.
For O=C(CNC(=O)c1ccc(-c2ccccc2)cc1)OCc1ccc(Br)cc1, the activity change, negative = inhibition was inactive: 15.1%.
In the case of COC(=O)c1ccc2[nH]c(CO)c(-c3ccccc3)c2c1, the activity change, negative = inhibition is reported as inconclusive: -44.3%.
In the case of OCc1cn(-c2ccccc2)nc1-c1cccnc1, the activity change, negative = inhibition is reported as inconclusive: -40.4%.
In the case of Cc1cc(C)cc(-n2ccn(Cc3ccc(F)cc3)c(=O)c2=O)c1, the activity change, negative = inhibition is reported as inconclusive: -52.7%.
For COc1cc(C2C(C(C)=O)=C(O)C(=O)N2c2ccc(Br)cn2)ccc1O (stereo not drawn), the activity change, negative = inhibition was inactive: -6.72%.
With CC1Cn2c(nc3sc4c(c3c2=O)CC(C)(C)OC4)N1CCO (stereo not drawn) the activity change, negative = inhibition was inactive: 9.67%.
With O=C(Nc1nc2ccccc2s1)c1ccc([N+](=O)[O-])o1 the activity change, negative = inhibition was inconclusive: -48.1%.
For CC1Cc2ccccc2N1C(=O)CSc1nnc2sc3ccccc3n12 (stereo not drawn), the activity change, negative = inhibition was inconclusive: -43.3%.
With COc1ccc(-c2cn[nH]c2-c2ccc(OC)cc2O)cc1 the activity change, negative = inhibition was active: -64.8%.
In the case of COc1ccc(C(=O)NC2CCCCC2)cc1OC1CCN(C(C)C)CC1, the activity change, negative = inhibition is reported as inconclusive: -54.3%.
In the case of COc1ccc(CCNc2oc(-c3ccccc3OC)nc2C#N)cc1, the activity change, negative = inhibition is reported as inconclusive: -46.7%.
In the case of COc1cc(C2C(C(=O)Nc3ccccc3)=C(C)Nc3nnnn32)cc(OC)c1OC (stereo not drawn), the activity change, negative = inhibition is reported as active: -106%.
In the case of CC(=O)Nc1ccc(S(=O)(=O)c2ccc(N)cc2)cc1N, the activity change, negative = inhibition is reported as inconclusive: -51.2%.
For COCCOc1ccc(C(F)(F)F)cc1NC(=O)COC(=O)c1cc([N+](=O)[O-])ccc1N1CCOCC1, the activity change, negative = inhibition was inconclusive: -51.8%.
In the case of COCC(=O)N(C)C[C@H]1N[C@@](C)(C(=O)OC)[C@H]2C(=O)N(Cc3ccccc3)C(=O)[C@@H]12, the activity change, negative = inhibition is reported as inactive: -15.3%.
For CC(C)Cn1c(=O)c2sccc2n2c(CCCC(=O)NC3CCCCC3)nnc12, the activity change, negative = inhibition was inconclusive: -42.7%.
For COc1cc(N/N=C(\C)c2ccc(O)c(C)c2)nc(-c2ccccc2)n1, the activity change, negative = inhibition was active: -90.3%.
With COc1cccc(CNC(=O)CCCn2nc(C)c3c(C)n(-c4ccc(C)cc4)nc3c2=O)c1OC the activity change, negative = inhibition was inconclusive: -45.8%.
In the case of CN(C)S(=O)(=O)c1ccc2c(c1)C(CC(=O)O)OC2=O (stereo not drawn), the activity change, negative = inhibition is reported as inconclusive: -44.3%.
With CCOC(=O)C1CCCN(C(=O)Cc2ccc(C)cc2)C1 (stereo not drawn) the activity change, negative = inhibition was inactive: -35.4%.
With COc1ccc(C(=O)c2nc3c(n2O)CCCC3)cc1OC the activity change, negative = inhibition was inactive: -0.829%.
With N#CC(C(=O)C1CCCCC1)c1nc2ccccc2[nH]1 (stereo not drawn) the activity change, negative = inhibition was active: -99.1%.
In the case of COc1ccc(C(=O)N/N=C(\C)c2ccccn2)cc1OC, the activity change, negative = inhibition is reported as active: -112%.
For O=C(Cn1c(=O)oc2ccc(Cl)cc21)NC1CCCCC1, the activity change, negative = inhibition was inconclusive: -45.6%.
With COCCN1C(=O)/C(=C/c2ccc(N3CCCC3)cc2C)SC1=S the activity change, negative = inhibition was inconclusive: -49.5%.
For O=C(O)Cc1csc(-c2cccc(Oc3ccccc3)c2)n1, the activity change, negative = inhibition was inconclusive: -43.2%.
